Reference: PubChem BioAssay AID504847 (National Center for Advancing Translational Sciences (NCATS), 2011)
“And” between values parts separate entries of the source, which are not always exact repeats. Equal entries are not always repeated. Among all 400,000 compounds or so, about 3,700 (0.93%) were called active. This list was built around the results that the source calls inconclusive (neither active nor inactive); the mix of calls is not that of the screen. The call rests on the fitted dose curve; in most records, active means well fitted inhibition curve with a large enough effect; inconclusive means small, poorly fitted or top-dose-only effect, or another doubt; inactive means no such curve, though single readings can be large or run the other way. A potency beside an inconclusive call is a rough fit, not a confirmed value.

Sequences of proteins named here, by UniProt entry; tags and fusion partners are left off. A change or cut given only in a name is not applied to a line headed by its entry.
UniProt P11473: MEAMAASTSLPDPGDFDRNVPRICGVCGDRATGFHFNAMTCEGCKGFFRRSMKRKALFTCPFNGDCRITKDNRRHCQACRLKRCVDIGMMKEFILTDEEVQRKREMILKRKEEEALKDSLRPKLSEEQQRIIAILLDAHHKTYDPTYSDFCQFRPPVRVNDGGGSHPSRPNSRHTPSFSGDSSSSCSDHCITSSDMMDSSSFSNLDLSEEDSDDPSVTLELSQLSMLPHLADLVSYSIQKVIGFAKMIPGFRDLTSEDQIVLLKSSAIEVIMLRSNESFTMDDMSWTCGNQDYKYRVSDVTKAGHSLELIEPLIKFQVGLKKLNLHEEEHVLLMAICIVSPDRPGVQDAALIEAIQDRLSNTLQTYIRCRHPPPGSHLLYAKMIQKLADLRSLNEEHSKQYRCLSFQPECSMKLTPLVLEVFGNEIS

These compounds were tested against Vitamin D3 receptor (Homo sapiens) (UniProt P11473) (assay: Inhibitors of the vitamin D receptor (VDR): qHTS). Conditions: VDR-SRC2-3 peptide fluorescence polarization, 2 h; max response, negative = inhibition: active compounds read low.
Procedure, shortened: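 Two reagent solutions held at 4 deg C in the dark were dispensed, compounds pinned at 23 nl, and the mixture incubated 2 h at room temperature. Read-out: fluorescence polarization of VDR–SRC2-3 peptide binding.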
On the % scale 0 is the no-effect control and ±100 the full control effect; potency means the concentration at half of the fitted maximal effect.

Potency, inconclusive:
NS(=O)(=O)c1ccc(NC(=S)N2CCN(C(=O)C3CCCO3)CC2)cc1 (configuration not stated) 79.4 µM [inhibitor, partial curve]
COc1cc(/C=C/C(=O)N2CCC=CC2=O)cc(OC)c1OC 89.1 µM [inhibitor, single point]
COc1ccccc1NC(=O)CNC(=O)c1ccc(Br)o1 50.1 µM [inhibitor, partial curve, poor fit]
Cc1ccc(NCc2nnc(SCC(=O)c3ccccc3)n2Cc2ccco2)c(C)c1 44.7 µM [inhibitor, partial curve, poor fit]
O/N=C1\CCCC\C1=C/c1ccccc1 100 µM [inhibitor, partial curve, poor fit]
O=c1c(CCc2ccccc2)nc2cncnc2n1Cc1ccccc1 79.4 µM [inhibitor, single point]
N=C1/C(=C\c2ccc(OC(=O)c3ccc(F)cc3)cc2)C(=O)N=C2SC(N3CCCC3)=NN12 89.1 µM [inhibitor, single point]
Cc1occc1-c1nnc(SCC(=O)c2ccc(F)cc2)n1Cc1ccco1 89.1 µM [inhibitor, partial curve, poor fit]
COC(=O)C1=C(O)/C(=C\c2ccc(OCC(=O)Nc3ccccc3OC)cc2)N=C1C 39.8 µM [inhibitor, single point]
O=C(Nc1cccc(NC(=O)c2ccc(Cl)cc2Cl)c1)c1cccnc1 89.1 µM [inhibitor, single point]
CN1CCN(c2ccncc2S(=O)(=O)N2CCCCC2)CC1 89.1 µM [inhibitor, single point]
O=C(C1CCCN1S(=O)(=O)c1cccc2cccnc12)N1CCc2ccccc2C1 (configuration not stated) 63.1 µM [inhibitor, single point]
Cc1cc(C)cc(OCC(=O)N/N=C\c2cn(C)nc2C)c1 70.8 µM [inhibitor, partial curve, poor fit]
Nc1ccc(/C=C/C(=O)c2ccco2)cc1 89.1 µM [inhibitor, partial curve, poor fit]
O=S(=O)(c1ccccc1)N1CCC[C@@]2(CCN(Cc3ccccc3)C2)C1 79.4 µM [inhibitor, single point]
O=c1[nH]c2cc3c(cc2cc1CN(Cc1ccccc1)Cc1nnnn1Cc1ccco1)OCCO3 89.1 µM [inhibitor, single point]
COc1cccc(CNC(=O)CCNS(=O)(=O)c2ccc(Br)s2)c1 89.1 µM [inhibitor, single point]
COCCN1C(=O)N[C@@H](c2cccc(C(F)(F)F)c2)C(C(=O)OC)=C1C 89.1 µM [inhibitor, single point]
Cc1[nH]c2ccccc2c1C(=O)COC(=O)C1CC(O)CN1S(=O)(=O)c1ccc(Cl)cc1 (configuration not stated) 79.4 µM [inhibitor, partial curve, poor fit]
CCOc1ccc(C(=O)CCN2CCCCC2)cc1 56.2 µM [inhibitor, partial curve, poor fit]
O=C1/C(=C/c2ccccc2)N=C(N2CCOCC2)N1c1cccc(Cl)c1 79.4 µM [inhibitor, single point]
O=C(O)c1c(-c2ccccc2)oc2ccc(OCc3ccc(Cl)c(Cl)c3)cc12 89.1 µM [inhibitor, single point]
c1ccc(CNc2ccc(N3CCOCC3)cc2)cc1 56.2 µM [inhibitor, partial curve, poor fit]
C/C=C(\C)C(=O)O[C@H]1CC(C)=C2C(=O)C=C(C)C2[C@@H]2OC(=O)[C@@](C)(OC(=O)C=C(C)C)C21 (some centres not stated) 50.1 µM [inhibitor, partial curve]
CCOC(=O)C1CCCN(C(=O)c2ccc(OC)c([N+](=O)[O-])c2)C1 (configuration not stated) 25.1 µM [inhibitor, partial curve, poor fit]
CC(=O)OCC1OC(n2c(S)c(C#N)c(-c3ccccc3)c(C#N)c2=O)C(OC(C)=O)C(OC(C)=O)C1OC(C)=O (configuration not stated) 79.4 µM [inhibitor, single point]
CCOC(=O)C1=C(C)NC(C)=C(C(=O)OCC)C1C 20 µM [inhibitor, partial curve, poor fit]
Cc1cccc(N/N=C/c2ccc(O)c(O)c2O)c1 20 µM [inhibitor, single point]
O=C(CNS(=O)(=O)c1ccccc1)NCC(=O)OCc1ccc(Br)cc1 28.2 µM [inhibitor, partial curve, poor fit]
C[C@H](C(=O)CC(=O)OC(C)(C)C)[C@H](O)c1ccc(C(F)(F)F)cc1 89.1 µM [inhibitor, single point]
C[C@]12c3[nH]c4ccccc4c3CCN1C(=O)C(CC(=O)NCC13CC4CC(CC(C4)C1)C3)C[C@@H]2C(=O)N1CCCCC1 (some centres not stated) 63.1 µM [inhibitor, partial curve, poor fit]
CC(NC(=O)c1ccc2c(c1)OCO2)C1CCCO1 (configuration not stated) 2.82 µM [inhibitor, partial curve, poor fit]
N#C/C(=C\c1cccnc1)C(=O)Nc1ccccc1 70.8 µM [inhibitor, single point]
Fc1ccc(-c2nn3c(C4COc5ccccc5O4)nnc3s2)cc1 (configuration not stated) 56.2 µM [inhibitor, partial curve, poor fit]
O=C(/C=C/c1ccc(N2CCC(c3ccccc3)=N2)cc1)c1ccccc1 79.4 µM [inhibitor, single point]
CC(=O)c1ccc(S(=O)(=O)NCC(=O)NC(c2nc3ccccc3[nH]2)C(C)C)cc1 (configuration not stated) 100 µM [inhibitor, single point]
O=C1Nc2ccccc2/C1=C/C(=O)c1cccs1 31.6 µM [inhibitor, partial curve, poor fit]
COCCOCCn1c(/C=C/c2ccccc2)nc2ccccc21 70.8 µM [inhibitor, partial curve]
CCCOc1ccc(Cn2c(O)cc(=O)[nH]c2=O)cc1 50.1 µM [inhibitor, partial curve, poor fit]
CC(Oc1coc(CN2CCN(C(=O)c3ccco3)CC2)cc1=O)c1ccccc1 (configuration not stated) 89.1 µM [inhibitor, single point]
Cc1cc(C)nc(/N=C2/NC(=O)CS2)n1 56.2 µM [inhibitor, partial curve, poor fit]

Grouped by structure, the entries above with fluorine
Potency, inconclusive:
N=C1/C(=C\c2ccc(OC(=O)c3ccc(F)cc3)cc2)C(=O)N=C2SC(N3CCCC3)=NN12 89.1 µM [inhibitor, single point]
Cc1occc1-c1nnc(SCC(=O)c2ccc(F)cc2)n1Cc1ccco1 89.1 µM [inhibitor, partial curve, poor fit]
COCCN1C(=O)N[C@@H](c2cccc(C(F)(F)F)c2)C(C(=O)OC)=C1C 89.1 µM [inhibitor, single point]
C[C@H](C(=O)CC(=O)OC(C)(C)C)[C@H](O)c1ccc(C(F)(F)F)cc1 89.1 µM [inhibitor, single point]
Fc1ccc(-c2nn3c(C4COc5ccccc5O4)nnc3s2)cc1 (configuration not stated) 56.2 µM [inhibitor, partial curve, poor fit]

Following part:

Potency, active:
CN(C1CCCCC1)S(=O)(=O)c1ccc(=S)[nH]c1 50.1 µM
O=C1C(Cl)=C(NCCc2ccccc2)C(=O)c2ccccc21 17.8 µM
O=C1ON=C(c2ccccc2)/C1=C/c1ccccc1 44.7 µM
CCCCn1c(-c2ccc(OC)cc2)nc2c(=O)n(C)c(=O)[nH]c21 50.1 µM
COc1ccc(OC)c(C2NC(=O)c3sc(=S)n(-c4ccccc4)c3N2)c1 (configuration not stated) 89.1 µM
CSS(=O)(=O)c1cccc2cccnc12 11.2 µM
COc1ccc2c(CC(=O)OCC(=O)Nc3ccc4c(c3)OCO4)coc2c1 17.8 µM
Cc1cc(O)c2c(c1O)C(=O)C(O)=C(O)C2=O 8.91 µM

Max response, negative = inhibition, inactive:
Cc1oc(C(=O)O)cc1CSCc1ccoc1C(=O)O -6.92%
Cc1cc(N/N=C/c2ccccc2O)c2ccccc2n1 10.1%
Cc1cccc(Cc2c(C)[nH]c(=O)c(C#N)c2C)c1 -11.2%
CN1c2ccccc2-c2nc3ccccc3n2C1c1ccccn1 (configuration not stated) -15.2%
COc1ccc(OC)c(Cc2nnc(CCC(=O)NCc3ccc(C)s3)o2)c1 10.9%
COCCN(CCOC)S(=O)(=O)c1ccc(C(=O)Nc2ccc([N+](=O)[O-])cc2OC)cc1 -8.48%
S=c1[nH]nc(-c2ccco2)n1Cc1ccccc1 3.13%
CCOc1ccc(C2C(C(=O)c3ccco3)=C(O)C(=O)N2CCCn2ccnc2)cc1 (configuration not stated) -12.9%
CCN(CC)c1ccc(/C=N/NC(=O)c2c[nH]c3ccccc23)cc1 -20.4%
COc1cccc(/C=N/NC(=O)C(C)n2nc(C)c([N+](=O)[O-])c2C)c1O (configuration not stated) -16%
COc1ccccc1CN1C(=O)C(=O)N(Cc2cccc(C)c2)C1=O -10.6%
CCc1cccc(NS(=O)(=O)c2ccc(-n3cccn3)cc2)c1 0.317% and -18.8%
N#CCN1CCC(c2cc(-c3ccco3)n[nH]2)CC1 -22.3%
Cn1c(=O)n(C)c2cc([N+](=O)[O-])c(N3CCN(S(=O)(=O)c4ccc5ccccc5c4)CC3)cc21 -0.701%
NS(=O)(=O)c1ccc(NC(=O)c2c(F)cccc2Cl)cc1 -26.8%
Cn1c(=O)c2c(nc(N3CCOCC3)n2Cc2c(F)cccc2Cl)n(C)c1=O 9.32%
COc1ccc(OC)c(NC(=O)c2cccc(NC(=O)c3ccccc3C(=O)O)c2)c1 10.1%
Nc1cc(=O)nc(SCC(=O)Nc2ccc(F)cc2)n1-c1cccc(Cl)c1 8.41%

2 entries picked at random from those above:
Max response, negative = inhibition, inactive:
COc1cccc(/C=N/NC(=O)C(C)n2nc(C)c([N+](=O)[O-])c2C)c1O (configuration not stated) -16%
Cn1c(=O)c2c(nc(N3CCOCC3)n2Cc2c(F)cccc2Cl)n(C)c1=O 9.32%
